Test [1] has as its target T1, DCB domain of BIG1 used to capture endogenous Arl1 (Figure S1A) (human) (UniProt Q9Y6D6).
T1 sequence: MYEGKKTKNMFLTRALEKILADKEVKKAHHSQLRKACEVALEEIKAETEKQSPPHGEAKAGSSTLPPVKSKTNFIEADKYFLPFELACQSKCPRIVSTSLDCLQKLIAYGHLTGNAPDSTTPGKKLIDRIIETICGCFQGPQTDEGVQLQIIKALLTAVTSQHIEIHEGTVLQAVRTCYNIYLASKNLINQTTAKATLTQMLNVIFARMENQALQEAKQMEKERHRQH
Put plainly: pull-down; DCB domain as bait captures endogenous Arl1 from mammalian cell lysates, GTP-dependent (Figure S1A); only the target purified.

Test [2] addresses Arl1^Q71L-GTP (human Arl1 residues 15–181, Q71L) (human) (UniProt P40616). Put plainly: crystal structure; Arl1^Q71L-GTP/Mg2+/DCB^Δ51–71, space group C2, one complex per asymmetric unit, 2.3 Å, molecular replacement; both purified.

No constants are given. Whether binding was seen depends on the method and setting. For some assays here: In cells and extracts the contact can be indirect. Some binding calls cover weakened binding; strength is not graded here. For some assays here: Tags and fused reporters may be left off the sequences shown.

B1: endogenous Arl1 from mammalian cell lysates (protein, UniProt P40616 1-181)
chain: MGGFFSSIFSSLFGTREMRILILGLDGAGKTTILYRLQVGEVVTTIPTIGFNVETVTYKNLKFQVWDLGGQTSIRPYWRCYYSNTDAVIYVVDSCDRDRIGISKSELVAMLEEEELRKAILVVFANKQDMEQAMTSSEMANSLGLPALKDRKWQIFKTSATKGTGLDEAMEWLVETLKSRQ
Take B1: the binding result in test [1] is “binds”.

B2: His6-DCB^Δ51–71 (human BIG1 residues 1–228 with a deletion of residues 51–71 inclusive) (domain or fragment, UniProt Q9Y6D6)
chain: MYEGKKTKNMFLTRALEKILADKEVKKAHHSQLRKACEVALEEIKAETEKTNFIEADKYFLPFELACQSKCPRIVSTSLDCLQKLIAYGHLTGNAPDSTTPGKKLIDRIIETICGCFQGPQTDEGVQLQIIKALLTAVTSQHIEIHEGTVLQAVRTCYNIYLASKNLINQTTAKATLTQMLNVIFARMENQALQEAKQMEKERHRQH
As for B2, the binding result in test [2] is on record as “binds”.
